The supplement of paper PMC10331698
± gives the standard deviation of the averaged measurements. Most values lie at the level of the controls, where differences are scatter.

Key:
Assay in all cases: level (log10 ratio to DMSO vehicle control); higher = higher biomarker level / cell amount than vehicle control
[1] = compound: O=C(O)C(F)(F)C(F)(F)C(F)(F)C(F)(F)C(F)(F)C(F)(F)C(F)(F)C(F)(F)C(F)(F)C(F)(F)C(F)(F)C(F)(F)C(F)(F)F [Perfluorotetradecanoic acid]; conditions: in DMSO
Protocol: (§1)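 BioMAP Diversity Plus panel of 12 human primary cell co-culture systems (3C, 4H, LPS, SAg, BT, BF4T, BE3C, CASM3C, HDF3CGF, KF3CT, MyoF, Mphg). Compounds were added 1 h before stimulation and left for 24 h (MyoF 48 h; BT 72 h for soluble read-outs or 6 d for IgG). Biomarkers were read by ELISA, cytotoxicity by SRB, PBMC viability and proliferation by Alamar Blue. Each well value was divided by the mean of 8 DMSO control wells on the same plate and log10 transformed; duplicate blinded samples were tested at 4 concentrations.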

[2] = compound: FC(F)(F)C(F)(C(F)(F)F)C(F)(F)C(F)(F)CC1CO1 [3-(Perfluoro-3-methylbutyl)-1,2-propenoxide]; conditions: in DMSO
Protocol: as §1

[3] = compound: O=C(Cl)C(F)(F)C(F)(F)C(F)(F)C(=O)Cl [Hexafluoroglutaryl chloride]; conditions: 2200 nM; in DMSO
Protocol: as §1

[4] = compound: O=S(=O)(O)C(F)(F)C(F)(F)C(F)(F)C(F)(F)C(F)(F)C(F)(F)F [Perfluorohexanesulfonic acid]; conditions: 2200 nM; in DMSO
Protocol: as §1

[5] = compound: OCCCC(F)(F)C(F)(F)C(F)(F)C(F)(F)C(F)(F)C(F)(F)C(F)(F)F [7:3 Fluorotelomer alcohol]; conditions: 2200 nM; in DMSO
Protocol: as §1

[6] = compound: C=CC(=O)OCCC(F)(F)C(F)(F)C(F)(F)C(F)(F)F [2-(Perfluorobutyl)ethyl acrylate]; conditions: 2200 nM; in DMSO
Protocol: as §1

[7] = compound: O=S(=O)(O)CCC(F)(F)C(F)(F)C(F)(F)C(F)(F)F [4:2 Fluorotelomer sulfonic acid]; conditions: 2200 nM; in DMSO
Protocol: as §1

[8] = compound: O=C(O)C=C(C(F)(F)F)C(F)(F)F [3,3-Bis(trifluoromethyl)-2-propenoic acid]; conditions: in DMSO
Protocol: as §1

Hexafluoroamylene glycol = compound: OCC(F)(F)C(F)(F)C(F)(F)CO [Hexafluoroamylene glycol]; conditions: 2200 nM; in DMSO
Protocol: as §1

Perfluoro-1-iodohexane = compound: FC(F)(F)C(F)(F)C(F)(F)C(F)(F)C(F)(F)C(F)(F)I [Perfluoro-1-iodohexane]; conditions: in DMSO
Protocol: as §1

[9] = compound: C=CC(=O)OCC(F)(F)C(F)(F)C(F)(F)COC(=O)C=C [1H,1H,5H,5H-Perfluoro-1,5-pentanediol diacrylate]; conditions: 2200 nM; in DMSO
Protocol: as §1

[10] = compound: FC(F)(I)C(F)(F)C(F)(F)C(F)(F)C(F)(F)C(F)(F)I [1,6-Diiodoperfluorohexane]; conditions: 2200 nM; in DMSO
Protocol: as §1

[11] = compound: C=CC(=O)OCCC(F)(F)C(F)(F)C(F)(F)C(F)(F)C(F)(F)C(F)(F)C(F)(F)C(F)(F)F [8:2 Fluorotelomer acrylate]; conditions: 2200 nM; in DMSO
Protocol: as §1

Test System | level (log10) ([1]; 740 nM) | level (log10) ([1]; 2200 nM) | level (log10) ([2]; 740 nM) | level (log10) ([2]; 2200 nM) | level (log10) [3] | level (log10) [4] | level (log10) [5] | level (log10) [6] | level (log10) [7] | level (log10) ([8]; 2200 nM) | level (log10) ([8]; 6700 nM) | level (log10) ([8]; 20000 nM) | level (log10) ([8]; 60000 nM) | level (log10) (Hexafluoroamylene glycol) | level (log10) (Perfluoro-1-iodohexane; 2200 nM) | level (log10) (Perfluoro-1-iodohexane; 6700 nM) | level (log10) (Perfluoro-1-iodohexane; 20000 nM) | level (log10) (Perfluoro-1-iodohexane; 60000 nM) | level (log10) [9] | level (log10) [10] | level (log10) [11]
HDF3CGF:Proliferation 72hr | 0.0265 ± 0.054 | 0.0285 ± 0.037 | 0.0035 ± 0.042 | -0.008 ± 0.023 | 0.004 ± 0.0014 | 0.0255 ± 0.083 | -0.0195 ± 0.029 | -0.0355 ± 0.093 | -0.0325 ± 0.06 | 0.046 ± 0.04 | -0.0325 ± 0.021 | -0.086 ± 0.069 | -0.24 ± 0.066 | -0.067 ± 0.021 | -0.0325 ± 0.015 | -0.0315 ± 0.019 | -0.028 ± 0.0014 | -0.468 ± 0.57 | -0.642 ± 0.0085 | -0.221 ± 0.05 | -0.0395 ± 0.0035
BE3C:CXCL10/IP-10 | 0.022 ± 0.0014 | 0.0145 ± 0.0064 | 0.0065 ± 0.015 | -0.0075 ± 0.0064 | 0.0415 ± 0.015 | 0.0155 ± 0.0035 | 0.041 ± 0.016 | -0.001 ± 0.0057 | 0.002 ± 0.0028 | -0.0145 ± 0.028 | -0.022 ± 0.027 | -0.0195 ± 0.026 | -0.0295 ± 0.00071 | -0.003 ± 0.013 | 0.033 ± 0.014 | 0.013 ± 0.018 | 0.0135 ± 0.0078 | 0.0355 ± 0.022 | -0.0105 ± 0.0078 | 0.0095 ± 0.00071 | -0.011 ± 0.011
lMphg:CD62E/E-Selectin | 0.014 ± 0.035 | -0.009 ± 0.014 | -0.01 ± 0.0085 | -0.014 ± 0.014 | 0.0045 ± 0.016 | 0.004 ± 0.0085 | -0.0035 ± 0.054 | -0.011 ± 0.0099 | -0.0165 ± 0.042 | -0.012 ± 0.0014 | -0.049 ± 0.0085 | -0.068 ± 0.02 | -0.14 ± 0.034 | -0.0125 ± 0.0064 | 0.0195 ± 0.019 | 0.005 ± 0.0042 | 0.018 ± 0.02 | 0.0305 ± 0.033 | -0.012 ± 0.013 | 0.018 ± 0.031 | 0.003 ± 0.038
BF4T:CD90 | -0.0015 ± 0.0035 | -0.006 ± 0.0042 | -0.01 ± 0.0042 | -0.0105 ± 0.016 | -0.0035 ± 0.0021 | 0.001 ± 0.02 | 0.004 ± 0.014 | -0.006 ± 0.013 | 0.0045 ± 0.019 | 0.0095 ± 0.043 | -0.0205 ± 0.011 | -0.022 ± 0.0042 | -0.0235 ± 0.019 | -0.0095 ± 0.018 | 0.007 ± 0.0071 | -0.0085 ± 0.0035 | -0.002 ± 0.018 | -0.002 ± 0.011 | -0.013 ± 0.021 | 0.0065 ± 0.039 | -0.0085 ± 0.0078
LPS:CD40 | 0.0535 ± 0.12 | 0.0215 ± 0.11 | -0.0165 ± 0.022 | -0.0325 ± 0.046 | -0.0305 ± 0.023 | 0.0125 ± 0.013 | 0.0475 ± 0.0064 | -0.004 ± 0.051 | 0.0075 ± 0.067 | -0.033 ± 0.0057 | -0.055 ± 0.024 | -0.061 ± 0.047 | -0.184 | 0.05 ± 0.017 | 0.0575 ± 0.013 | 0.058 ± 0.0014 | 0.0375 ± 0.005 | -0.0135 ± 0.061 | -0.087 ± 0.02 | -0.004 ± 0.04 | 0.039 ± 0.021
BF4T:CD106/VCAM-1 | 0.0255 ± 0.005 | -0.003 ± 0.014 | 0.0025 ± 0.069 | 0 ± 0.05 | 0.007 ± 0.044 | 0.0185 ± 0.054 | 0.0115 ± 0.076 | -0.0095 ± 0.063 | 0.012 ± 0.045 | -0.0335 ± 0.057 | -0.0755 ± 0.0064 | -0.0945 ± 0.005 | -0.047 ± 0.067 | 0.0325 ± 0.079 | 0.029 ± 0.0099 | -0.0055 ± 0.0035 | -0.0215 ± 0.0035 | -0.0745 ± 0.019 | -0.0185 ± 0.025 | -0.0005 ± 0.0092 | -0.0025 ± 0.081
HDF3CGF:CXCL8/IL-8 | 0.003 ± 0.016 | -0.018 ± 0.017 | 0.0095 ± 0.0064 | 0.0045 ± 0.011 | 0.0035 ± 0.0035 | -0.003 ± 0.0085 | 0.004 ± 0.0057 | 0.0145 ± 0.00071 | -0.0035 ± 0.0064 | 0.0055 ± 0.012 | 0.008 ± 0.0014 | -0.001 | 0.022 ± 0.011 | 0.0015 ± 0.0078 | 0.003 ± 0.0099 | -0.0055 ± 0.0021 | -0.002 ± 0.0057 | -0.024 ± 0.037 | -0.009 ± 0.0042 | 0.007 ± 0.0071 | -0.005 ± 0.02
CASM3C:M-CSF | -0.002 ± 0.0042 | -0.0035 ± 0.023 | 0.0025 ± 0.052 | -0.013 ± 0.0014 | 0.0225 ± 0.016 | 0.029 ± 0.085 | 0.009 ± 0.0085 | 0.003 ± 0.041 | 0.0165 ± 0.042 | -0.024 ± 0.016 | -0.0435 ± 0.0035 | -0.044 ± 0.02 | -0.068 ± 0.033 | -0.012 ± 0.028 | 0.024 ± 0.044 | -0.0125 ± 0.025 | 0.0055 ± 0.032 | 0.0085 ± 0.043 | -0.006 ± 0.04 | 0.001 ± 0.044 | 0.0105 ± 0.0092
KF3CT:PAI-I | 0.0045 ± 0.028 | -0.006 ± 0.021 | 0.015 ± 0.0071 | 0.001 ± 0.024 | -0.0075 ± 0.023 | 0.013 ± 0.023 | -0.013 ± 0.033 | -0.013 ± 0.024 | 0.002 ± 0.011 | 0.018 | 0.004 ± 0.013 | 0.002 ± 0.013 | -0.0055 ± 0.018 | -0.002 ± 0.0085 | 0.008 ± 0.011 | 0.001 ± 0.0014 | -0.0005 ± 0.005 | 0.0055 ± 0.005 | 0.0265 ± 0.011 | 0.0025 ± 0.035 | 0.002 ± 0.0014
lMphg:CCL2/MCP-1 | 0.007 ± 0.018 | 0.001 ± 0.031 | 0.015 ± 0.027 | -0.0235 ± 0.011 | 0 ± 0.044 | 0.022 ± 0.042 | -0.002 ± 0.016 | -0.0005 ± 0.018 | 0.0085 ± 0.054 | -0.0145 ± 0.0035 | -0.007 ± 0.0028 | -0.016 ± 0.0028 | -0.078 ± 0.061 | -0.0025 ± 0.011 | 0.001 ± 0.0014 | -0.021 ± 0.0099 | 0.0145 ± 0.032 | -0.003 ± 0.025 | -0.017 ± 0.021 | 0.0095 ± 0.039 | -0.007 ± 0.011
CASM3C:IL-6 | 0.019 ± 0.044 | -0.0155 ± 0.015 | 0.012 ± 0.052 | -0.0245 ± 0.019 | 0.0255 ± 0.046 | 0.011 ± 0.068 | 0.0035 ± 0.05 | 0.01 ± 0.042 | 0.022 ± 0.031 | -0.0385 ± 0.09 | -0.097 ± 0.045 | -0.148 ± 0.0071 | -0.189 ± 0.026 | 0.007 ± 0.044 | 0.026 ± 0.018 | -0.0035 ± 0.012 | -0.0055 ± 0.0021 | 0.018 ± 0.0099 | -0.007 ± 0.051 | -0.001 ± 0.017 | 0.0105 ± 0.04
BF4T:PAI-I | 0.0175 ± 0.0021 | 0.0095 ± 0.00071 | 0.003 ± 0.018 | 0.004 ± 0.034 | -0.003 ± 0.016 | 0.007 ± 0.028 | -0.0045 ± 0.0092 | 0.0035 ± 0.035 | 0.0045 ± 0.021 | 0.0105 ± 0.013 | 0.0055 ± 0.0021 | 0.001 ± 0.0042 | -0.0055 ± 0.021 | 0.0035 ± 0.028 | -0.012 ± 0.021 | -0.0095 ± 0.0035 | -0.02 ± 0.0042 | -0.006 ± 0.018 | -0.007 ± 0.0071 | 0.016 ± 0.023 | 0.0085 ± 0.018

Looked up above.
Under level (log10) [7], HDF3CGF:CXCL8/IL-8 shows -0.0035 ± 0.0064
Under level (log10) ([8]; 20000 nM), BF4T:CD90 shows -0.022 ± 0.0042
